Results on one molecule are retold here after publication PMC9458062, “^131I-C19 Iodide Radioisotope and Synthetic I-C19 Compounds as K-Ras4B–PDE6δ Inhibitors: A Novel Approach against Colorectal Cancer—Biological Characterization, Biokinetics and Dosimetry” (Molecules, 2022).

One series relates to HCT116. The series can be described thus: Cell uptake, internalization and radiation absorbed dose to the nucleus. It counts as cell-based, human. Here is the method:
The HCT116, LoVo and SW620 cells were seeded in 48-well tissue culture plates at a density of 10^5 cells/well. After 24 h, the cells were exposed to 1.44 Bq/cell of ^131I-C19 (200 μL) at 37 °C for 1, 3 and 5 h. After treatment, two washes (1 mL of ice-cold PBS) were performed. For the calculation of the cell uptake, the cells in each well were treated (at room temperature for 5 min) with 500 μL of glycine buffer (50 mM, pH 2.8). Then, this fraction was removed, and the radioactivity was measured in a NaI (Tl) detector (BCL, San Rafael CA, USA). To evaluate the ^131I-C19 internalization, the cells were incubated with 1 mL of NaOH 0.3 M (at room temperature for 10 min). Once more, the radioactivity was measured in a NaI (Tl) detector (BCL, San Rafael CA, USA). A 100% standard solution (200 μL) of ^131I-C19 was also measured (n = 5). The uptake (%) (plasmatic membrane) and internalization (%) (cytoplasm) were used to obtain the radiation absorbed dose. […]

A short description of series [1]: Radiation absorbed dose estimation for organs and tumor. Type of series: in vivo, Nu/Nu mice with LoVo xenograft tumors. The following applies: for Absorbed Dose / Total Nuclear Transformation N: 5 MBq intraperitoneal.

Turning to `COc1ccc(CNC(C)C(=O)Nc2cc([131I])ccc2[131I])cc1OC` (centres unmarked) [^131I-C19], the “Cytoplasm Total Nuclear Transformations” value with HCT116 (HCT116) stood at 47 Bq^.s. In addition, in the series with HCT116 (HCT116, cytoplasm to nucleus), the “Absorbed Dose DN←Cy” value was 0.01 Gy. For the same molecule, the “Absorbed Dose” value in series [1] (Colon (Large intestine)) is on record as 0.14 Gy; in series [1] (Kidney), 0.12 Gy; in series [1] (Liver), 0.34 Gy; in series [1] (Lung), 0.40 Gy; in series [1] (Pancreas) it was 0.18 Gy; in series [1] (Spleen), 0.19 Gy. The “Absorbed Dose” value in series [1] (Tumor (LoVo)) is listed as 3.55 Gy. Moreover, the “Total Nuclear Transformation N” value is 504 MBq.s in series [1] (Colon (Large intestine)); 1796 MBq.s in series [1] (Kidney); 3816 MBq.s in series [1] (Liver); 421 MBq.s in series [1] (Lung); 399 MBq.s in series [1] (Pancreas); 151 MBq.s in series [1] (Spleen). The “Total Nuclear Transformation N” value in series [1] (Tumor) is 7020 MBq.s. Besides, the “radiation absorbed dose to the tumor, extrapolated” value in series [1] (Tumor, administration of 74 MBq (2 mCi)) is recorded as 52 Gy/74 MBq.
